Reference: publication PMC6399320, “The SIAH2-NRF1 axis spatially regulates tumor microenvironment remodeling for tumor progression” (Nature Communications, 2019)
These are yes or no findings as the source states them, for the method shown. Binding seen in cells or lysates may run through a third protein. Some entries that bind do so weakly or less than the wild type. For part of these data: Where a sequence is shown, tags or fusion partners need not be part of it.

T1: NRF1, endogenous in MDA-MB-231 cells (human (endogenous in MDA-MB-231)) (UniProt Q16656)
T1 sequence: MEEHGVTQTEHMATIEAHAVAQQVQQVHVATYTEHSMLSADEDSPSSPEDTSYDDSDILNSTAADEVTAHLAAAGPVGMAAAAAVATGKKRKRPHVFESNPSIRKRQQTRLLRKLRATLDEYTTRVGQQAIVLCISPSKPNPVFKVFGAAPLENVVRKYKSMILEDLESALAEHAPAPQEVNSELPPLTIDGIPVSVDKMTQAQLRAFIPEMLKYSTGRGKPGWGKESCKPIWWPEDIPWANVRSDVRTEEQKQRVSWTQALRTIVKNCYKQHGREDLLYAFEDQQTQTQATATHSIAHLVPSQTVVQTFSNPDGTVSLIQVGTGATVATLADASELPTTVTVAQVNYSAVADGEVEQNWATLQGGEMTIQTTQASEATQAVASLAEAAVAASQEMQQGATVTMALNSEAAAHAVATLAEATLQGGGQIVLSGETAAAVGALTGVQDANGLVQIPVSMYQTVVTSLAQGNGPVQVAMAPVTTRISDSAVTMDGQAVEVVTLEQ

T2: Flag-SIAH2^RM (H98A/C101A), E3 ligase activity dead mutant (UniProt O43255)
T2 sequence: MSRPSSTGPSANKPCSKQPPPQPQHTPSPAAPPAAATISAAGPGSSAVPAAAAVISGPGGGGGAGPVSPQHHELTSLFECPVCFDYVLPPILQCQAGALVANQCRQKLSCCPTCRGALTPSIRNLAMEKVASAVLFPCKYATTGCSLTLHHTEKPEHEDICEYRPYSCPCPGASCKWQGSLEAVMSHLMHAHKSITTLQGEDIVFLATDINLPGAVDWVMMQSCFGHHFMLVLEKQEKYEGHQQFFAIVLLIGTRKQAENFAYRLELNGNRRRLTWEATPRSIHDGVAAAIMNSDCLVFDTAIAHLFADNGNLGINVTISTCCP

B1: GST-SIAH2, bacterially expressed (enzyme, UniProt O43255 1-324, looked up)
chain: MSRPSSTGPSANKPCSKQPPPQPQHTPSPAAPPAAATISAAGPGSSAVPAAAAVISGPGGGGGAGPVSPQHHELTSLFECPVCFDYVLPPILQCQAGHLVCNQCRQKLSCCPTCRGALTPSIRNLAMEKVASAVLFPCKYATTGCSLTLHHTEKPEHEDICEYRPYSCPCPGASCKWQGSLEAVMSHLMHAHKSITTLQGEDIVFLATDINLPGAVDWVMMQSCFGHHFMLVLEKQEKYEGHQQFFAIVLLIGTRKQAENFAYRLELNGNRRRLTWEATPRSIHDGVAAAIMNSDCLVFDTAIAHLFADNGNLGINVTISTCCP
notes: E3 ligase SIAH2, cDNA cloned into pGEX-4T-1; Vector pGEX-4T-1; source: Escherichia coli BL21, expressed and purified
B2: Myc-NRF1, exogenously expressed (protein, UniProt Q16656 1-503)
chain: MEEHGVTQTEHMATIEAHAVAQQVQQVHVATYTEHSMLSADEDSPSSPEDTSYDDSDILNSTAADEVTAHLAAAGPVGMAAAAAVATGKKRKRPHVFESNPSIRKRQQTRLLRKLRATLDEYTTRVGQQAIVLCISPSKPNPVFKVFGAAPLENVVRKYKSMILEDLESALAEHAPAPQEVNSELPPLTIDGIPVSVDKMTQAQLRAFIPEMLKYSTGRGKPGWGKESCKPIWWPEDIPWANVRSDVRTEEQKQRVSWTQALRTIVKNCYKQHGREDLLYAFEDQQTQTQATATHSIAHLVPSQTVVQTFSNPDGTVSLIQVGTGATVATLADASELPTTVTVAQVNYSAVADGEVEQNWATLQGGEMTIQTTQASEATQAVASLAEAAVAASQEMQQGATVTMALNSEAAAHAVATLAEATLQGGGQIVLSGETAAAVGALTGVQDANGLVQIPVSMYQTVVTSLAQGNGPVQVAMAPVTTRISDSAVTMDGQAVEVVTLEQ
B3: Myc-NRF1-K230R, exogenously expressed (protein, UniProt Q16656 1-503)
chain: MEEHGVTQTEHMATIEAHAVAQQVQQVHVATYTEHSMLSADEDSPSSPEDTSYDDSDILNSTAADEVTAHLAAAGPVGMAAAAAVATGKKRKRPHVFESNPSIRKRQQTRLLRKLRATLDEYTTRVGQQAIVLCISPSKPNPVFKVFGAAPLENVVRKYKSMILEDLESALAEHAPAPQEVNSELPPLTIDGIPVSVDKMTQAQLRAFIPEMLKYSTGRGKPGWGKESCRPIWWPEDIPWANVRSDVRTEEQKQRVSWTQALRTIVKNCYKQHGREDLLYAFEDQQTQTQATATHSIAHLVPSQTVVQTFSNPDGTVSLIQVGTGATVATLADASELPTTVTVAQVNYSAVADGEVEQNWATLQGGEMTIQTTQASEATQAVASLAEAAVAASQEMQQGATVTMALNSEAAAHAVATLAEATLQGGGQIVLSGETAAAVGALTGVQDANGLVQIPVSMYQTVVTSLAQGNGPVQVAMAPVTTRISDSAVTMDGQAVEVVTLEQ

Columns and labels:
[1] = molecular target: T1, NRF1, endogenous in MDA-MB-231 cells (human (endogenous in MDA-MB-231)); assay: co-IP; endogenous proteins, MDA-MB-231 cells under normoxia or hypoxia for 18 h, then 10 µM MG132 for another 6 h; the anti-NRF1 antibody is the only one against an endogenous protein listed for immunoprecipitation
[2] = molecular target: T2, Flag-SIAH2^RM (H98A/C101A), E3 ligase activity dead mutant; assay: co-IP; exogenously expressed Myc-NRF1 or Myc-NRF1-K230R with Flag-SIAH2^RM; IP lysis buffer 150 mM NaCl, 20 mM Tris pH 7.4, 0.5% NP-40, 4 °C

Row | Binder | binding [1] | binding [2]
1 | B1 | binds | 
2 | B2 |  | binds
3 | B3 |  | binds
